This is one part of the list.
system: T1, CTL2-GFP (C. trachomatis L2/434/Bu, GFP-expressing); parameters: species or system HeLa; Intracellular C. trachomatis growth in HeLa cells, bulk GFP fluorescence relative to DMSO; settings: bulk GFP, single well; 28.5 h, 10 µM; inhibitor
T1 construct: L2/434/Bu, GFP-expressing

Row | Compound | % of control remaining [%]
1 | Cc1cnc(CNS(=O)(=O)c2ccc(F)cc2)cn1 [CBK050489] | 139.256
2 | CC(C)C(=O)N1C[C@H]2NC(=O)c3ccccc3C(=O)[C@@]2(C)C1 [CBK281658] | 86.9703
3 | CN(C)S(=O)(=O)c1cccc(C(=O)NCc2ccco2)c1 [CBK270135] | 140.703
4 | Nc1nc2cc3c(cc2[nH]1)OCO3 [CBK023191] | 88.3128
5 | COc1cccc(N(CC(=O)Nc2ccccc2Cl)S(=O)(=O)c2ccc(C)cc2)c1 [CBK263791] | 116.588
6 | COc1ccc([C@H]2CN(Cc3ccccc3)C[C@@H]2NC(=O)CCc2ccco2)cc1 [CBK286477] | 110.011
7 | O=C(COc1ccc(Br)cc1C(=O)O)Nc1ccc(F)cc1 [CBK286671] | 110.645
8 | Nc1cc2c(cc1Cl)C(=O)NC2=O [CBK028783] | 101.414
9 | CCN(CC)CCN(Cc1ccc2c(c1)OCO2)C(=O)Nc1ccc2[nH]ccc2c1 [CBK159037] | 103.025
10 | Cn1c(=O)c2ncn(CC(=O)Nc3ccc(N4CCN(Cc5ccccc5)CC4)cc3)c2n(C)c1=O [CBK266875] | 131.862
11 | CC(=O)N1CCC(N2C[C@H](O)C[C@H]2c2nc(-c3cccc([N+](=O)[O-])c3)no2)CC1 [CBK288846] | 156.093
12 | Cc1c(Cc2ccccc2)c(N2CCN(C/C=C/c3ccccc3)CC2)n2c(nc3ccccc32)c1C#N [CBK263112] | 112.019
13 | Nc1ccc(-c2cc(N)n(-c3ccc(Oc4ccccc4)c(S(=O)(=O)O)c3)n2)cc1 [CBK261563] | 120.095
14 | CN(Cc1nccs1)C(=O)c1cccc(OCC(=O)N2CCCCC2)c1 [CBK307478] | 111.485
15 | Cc1ccc(S(=O)(=O)Nc2ccsc2C(=O)Nc2ccc(F)cc2)cc1 [CBK004571] | 102.113
16 | CC1CC(/N=C2/NCCS2)CC(C)(C)C1 (stereo not shown) [CBK020293] | 131.869
17 | CC1(C(C)(O)C(F)F)OC(NC2C3CC4CC(C3)CC2C4)=NC1=O (stereo not shown) [CBK137190] | 107.581
18 | CN(C)C(=O)CSc1nnc(-c2cccc3ccccc23)n1-c1ccccc1 [CBK266044] | 167.782
19 | Nc1ccc(C(=O)Nc2ccc(-c3nc4ccc(NC(=O)c5ccc(N)cc5)cc4[nH]3)cc2)cc1 [CBK261147] | 75.2432
20 | CC(=O)Nc1ccc(Nc2nc(-c3ccc(O)cc3)cn3ccnc23)cc1 [CBK037992] | 124.11
21 | COC(=O)N1CC2(CCCCC2NCC2CCCO2)c2ccccc21 (stereo not shown) [CBK083541T] | 110.392
22 | COc1ccc(-c2csc(Nc3cccc(C(=O)O)c3)n2)cc1 [CBK286924] | 115.924
23 | O=C(O)c1ccc(Oc2ccc3c(c2)C(=O)N(c2nccs2)C3=O)cc1 [CBK261200] | 110.544
24 | Cn1ccc(C(=O)N2CCCC3(C/C=C/Cc4ccccc4OCC(=O)NC3)C2)cc1=O (stereo not shown) [CBK292179] | 142.616
25 | O=C(O)c1cccc(-c2ccc(Nc3cccc(NC(=O)c4ccncc4)c3)nc2)c1 [CBK037776] | 184.994

Row | Compound | % of control remaining [%]
26 | O/N=C1\CC2(CCCCC2)c2ccccc21 [CBK013318] | 132.25
27 | CC(=O)Nc1ccc(CN[C@@H]2CCC[C@H]2Cc2cc(C)no2)cc1 [CBK285459] | 150.997
28 | CC(C)n1cc(C(=O)N2CCCC(c3cc4ncccc4[nH]3)C2)cn1 (stereo not shown) [CBK283419] | 124.373
29 | Cn1nnnc1SCCNC(=O)Nc1cccc(CN2CCCCC2)c1 [CBK306872] | 111.423
30 | O=S(=O)(Nc1ccc(Cl)c(Cl)c1)c1ccc(Cl)c(Cl)c1 [CBK044838] | 88.0139
31 | COCCN1CCC(CNC(=O)Nc2cc(C)ccc2F)C1 (stereo not shown) [CBK304631] | 110.57
32 | COCCCn1c(=O)[nH]c2ncc(-c3cnc(OC)nc3)nc21 [CBK064618] | 100.055
33 | CCCc1nn(CC(=O)N(CC)CC)c(=O)c2cc3ccsc3n12 [CBK284192] | 76.4211
34 | O=C(O)c1cccc(NCC(=O)c2ccccc2)c1 [CBK287163] | 120.356
35 | COc1ccc(CNC(=O)CN2CCCC(Cn3cncn3)C2)cc1 (stereo not shown) [CBK305339] | 128.654
36 | COc1cc(Nc2cccc(-c3ccc4ccccc4c3)n2)cc(OC)c1OC [CBK037612] | 98.2705
37 | Cc1cccnc1NC(=O)C1CCCN1S(=O)(=O)c1ccc(Cl)cc1 (stereo not shown) [CBK269914] | 147.42
38 | CC(=O)N1CCC(C(=O)NC(=O)NCc2ccc3c(c2)CCO3)CC1 [CBK034837] | 95.1019
39 | Cc1n[nH]cc1-c1nsc(Nc2ccccc2)n1 [CBK113680] | 66.101
40 | CCOc1cccc(CNc2ccc(N3CCOCC3)c(C(=O)O)c2)c1 [CBK269973] | 92.3929
41 | COc1cc(CN2Cc3cccc(C(=O)O)c3C2=O)cc(OC)c1OC [CBK291227] | 108.186
42 | COCCn1c(SCc2ccc([N+](=O)[O-])cc2)nc2c([nH]c3ccccc32)c1=O [CBK294415] | 162.137
43 | CN1CCC[C@H]1C(=O)N1CCCC2(CCN(Cc3ccccc3)C2)C1 (stereo partly shown) [CBK136901] | 79.8198
44 | O=C(O)c1[nH]c2ccccc2c1NS(=O)(=O)c1cc(F)c(Br)cc1F [CBK049885] | 136.556
45 | COc1ccc(NC(=O)N[C@H]2[C@H](O)[C@@H](N3CCOCC3)[C@@H]3OC[C@H]2O3)cc1 [CBK288820] | 126.035
46 | N#Cc1c(NC(=O)c2ccc(C(=O)O)cc2C(=O)O)sc2c1CCCC2 [CBK262722] | 129.473
47 | CCOc1ccc(C(=O)C2=C(O)C(=O)N(CCN(C)C)C2c2cccnc2)cc1Cl (stereo not shown) [CBK266585] | 134.748
48 | CC(=O)N[C@H]1C[C@@H](Cc2cc(CN3CCN(c4ccccc4)CC3)on2)C1(C)C [CBK289241] | 117.541
49 | c1ccc2[nH]c(CCCCCc3nc4ccccc4[nH]3)nc2c1 [CBK267694] | 111.16

Some of the entries above, set out differently.
O=S(=O)(Nc1ccc(Cl)c(Cl)c1)c1ccc(Cl)c(Cl)c1 [CBK044838]
  % of control remaining [%]: 88.0139
COCCN1CCC(CNC(=O)Nc2cc(C)ccc2F)C1 (stereo not shown) [CBK304631]
  % of control remaining [%]: 110.57
COCCCn1c(=O)[nH]c2ncc(-c3cnc(OC)nc3)nc21 [CBK064618]
  % of control remaining [%]: 100.055

Source: PMC12040169 (PLOS Biology, 2025)
